Data reported in PubChem BioAssay (Tox21).
Values joined by “and” are separate entries in the source; they are usually repeats but may differ in a detail not shown here. Equal values may be shown once. For part of these data: Shown are results outside the selection of hits, which stands elsewhere. Results filed as inconclusive are left out. The list shows a part of the results, in another mix than the full data. Active and inactive are the calls of the source. Unless noted, calls follow the shape of the dose curve; as a rule, active = well fitted curve in the direction sought with a large enough effect in the repeat runs; inconclusive = weak or mixed curves; inactive = no such curve, though single readings can be large; an effect the other way counts as inactive or inconclusive.

Protein sequences, listed by entry. Tags and fused reporters are not part of them. Lines headed by an entry give the natural chain unless they say otherwise; changes in a name come on top.
UniProt Q14994: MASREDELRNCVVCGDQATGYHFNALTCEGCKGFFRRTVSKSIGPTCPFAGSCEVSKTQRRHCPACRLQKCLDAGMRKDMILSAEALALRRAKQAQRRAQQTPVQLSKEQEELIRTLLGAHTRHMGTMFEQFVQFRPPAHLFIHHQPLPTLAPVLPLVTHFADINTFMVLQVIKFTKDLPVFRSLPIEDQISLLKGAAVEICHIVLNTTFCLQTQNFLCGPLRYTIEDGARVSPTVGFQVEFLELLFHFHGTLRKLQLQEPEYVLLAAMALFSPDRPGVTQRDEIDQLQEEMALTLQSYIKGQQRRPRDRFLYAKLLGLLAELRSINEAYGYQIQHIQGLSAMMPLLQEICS

Tests used:
[1] = qHTS assay for small molecule activators of the heat shock response signaling pathway - cell viability counter screen (AID 743209); settings: HSE-bla HeLa viability, CellTiter-Glo luminescence, 5 h; also: % is scaled to controls: 0 for no effect and ±100 for the full control effect; nearly all actives have a fitted effect of over 50% in size
Summary of the method: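 Compounds dissolved in DMSO were added to overnight-plated HSE-bla HeLa cells and left 5 h at 37 C. Cell viability was quantified by luminescence using CellTiter-Glo.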

[2] = qHTS assay to identify small molecule agonists of the peroxisome proliferator-activated receptor delta (PPARd) signaling pathway - cell viability counter screen (AID 743211); settings: PPARd-bla HEK293H viability, CellTiter-Glo luminescence, 17 h; also: % is scaled to controls: 0 for no effect and ±100 for the full control effect; nearly all actives have a fitted effect of over 55% in size
Summary of the method: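 Multiplexed format: after the 2 h room-temperature LiveBLAzer B/G FRET step, CellTiter-Glo was added to the same wells. Luminescence after 30 min gave cell viability; compound exposure was 17 h at 37C.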

[3] = qHTS assay to identify small molecule antagonists of the peroxisome proliferator-activated receptor delta (PPARd) signaling pathway - cell viability counter screen (AID 743213); settings: PPARd-bla HEK293H viability, CellTiter-Glo luminescence, 17 h; also: % is scaled to controls: 0 for no effect and ±100 for the full control effect; nearly all actives have a fitted effect of over 50% in size
Summary of the method: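 Luminescence from CellTiter-Glo, added after the bla read and incubated 30 min at room temperature, gives viability of HEK293H PPARd-bla cells exposed to compounds for 17 h at 37 C with 300 nM L165041.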

[4] = qHTS assay to identify small molecule agonists of the farnesoid-X-receptor (FXR) signaling pathway - cell viability counter screen (AID 743218); settings: FXR-bla HEK293T viability, CellTiter-Glo luminescence, 16 h; also: % is scaled to controls: 0 for no effect and ±100 for the full control effect; nearly all actives have a fitted effect of over 45% in size
Summary of the method: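 Quantitative HTS counter screen measuring ATP-based viability via CellTiter-Glo luminescence in HEK 293T cells carrying a UAS-driven beta-lactamase reporter, after 16 h compound exposure at 37 C.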

[5] = qHTS assay to identify small molecule antagonists of the farnesoid-X-receptor (FXR) signaling pathway - cell viability counter screen (AID 743221; active = well fitted cell-killing curve with a large enough effect in the repeat runs, not every such curve was filed as active; also: % is scaled to controls: 0 for no effect and ±100 for the full control effect; nearly all actives have a fitted effect of over 50% in size); settings: FXR-bla HEK293T viability, CellTiter-Glo luminescence, 16 h; at 62.6 µM (top of the series) unless noted
Summary of the method: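 CellTiter-Glo, 30 min RT, luminescence; same wells as the LiveBLAzer FRET read. Cells: FXR-UAS-bla HEK 293T. Treatment: compound with chenodeoxycholic acid 50 uM final, 16 h at 37 C.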

[6] = qHTS assay to identify small molecule agonists of the endoplasmic reticulum stress response signaling pathway - cell viability counter screen (AID 1159517; calls by dose curve;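 also: HeLa cells carrying an ER stress response element beta-lactamase reporter; % is scaled to controls: 0 for no effect and ±100 for the full control effect; nearly all actives have a fitted effect of over 50% in size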); settings: ESRE-bla HeLa viability, CellTiter-Glo luminescence, 5 h
Summary of the method: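 Cytotoxicity of test compounds toward ESRE-bla HeLa cells was assessed after 5 hr exposure. The luminescent CellTiter-Glo signal was measured 30 min after reagent addition.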

[7] = qHTS assay to identify small molecule antagonists of the retinoid-related orphan receptor gamma (ROR-gamma) signaling pathway - cell viability counter screen (AID 1159520); settings: Tet-on RORgamma CHO cells viability, ATP luminescence, 16 h; at 92.4 µM (top of the series)
Summary of the method: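 Tet-on ROR gamma CHO cells (1,000/well) were plated 4 hr, given compounds in DMSO for 2 hr at 37 C, then induced with 1 uM final doxycycline for 16 hr. Viability was read as ATP by CellTiter-Glo luminescence after 30 min.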

[8] = target: Nuclear receptor ROR-gamma (Homo sapiens) (UniProt P51449); test: qHTS assay to identify small molecule antagonists of the retinoid-related orphan receptor gamma (ROR-gamma) signaling pathway (AID 1159521); settings: Tet-on RORgamma CHO cells, RORE-luciferase, 16 h; at 92.4 µM (top of the series)
Summary of the method: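 Readout: ONE-Glo luciferase luminescence, 30 min at room temperature. System: Tet-on RORγ CHO, RORE-LUC. Sequence: compound 2 h, doxycycline 1 uM final, 16 h at 37 C.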

[9] = qHTS assay to identify small molecule agonists of the AP-1 signaling pathway - cell viability counter screen (AID 1159525; calls by dose curve; also: nearly all actives have a fitted effect of over 55% in size); settings: ME-180 (cervical carcinoma) AP-1-bla cells viability, ATP luminescence, 5 h; at 76.8 µM (top of the series)
Summary of the method: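 Each titration point was normalised to DMSO and tetra n-octyl ammonium bromide controls. The read was Cell Titer Glo luminescence after 30 min at RT, following 5 h compound exposure of ME-180 AP-1-bla cells at 37 °C.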

[10] = qHTS assay to identify small molecule agonists of the RXR signaling pathway - cell viability counter screen (AID 1159529); settings: RXR-alpha-bla HEK293T viability, CellTiter-Glo, 16 h; at 76.8 µM (top of the series)
Summary of the method: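 Tox21 10K compounds were tested for cytotoxicity against GeneBLAzer RXR-alpha HEK 293T cells grown in 2% charcoal-stripped FBS. Exposure lasted 16 hr at 37 C, 5% CO2; viability read by CellTiter-Glo luminescence.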

[11] = qHTS assay to identify small molecule antagonists of the retinoid acid receptor (RAR) signaling pathway - cell viability counter screen (AID 1159551); settings: C3RL4 cells viability, ATP luminescence (CellTiter-Glo), 6 h; at 92.4 µM (top of the series); also: % is scaled to controls: 0 for no effect and ±100 for the full control effect; nearly all actives have a fitted effect of over 35% in size
Summary of the method: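 In this counter screen, the RARE-luciferase line C3RL4 was exposed for 6 h at 37 C and 5% CO2 to compounds with retinol at 1 uM final. Cellular ATP, read by luminescence, served as the viability measure.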

[12] = qHTS assay to identify small molecule agonists of the constitutive androstane receptor (CAR) signaling pathway - cell viability counter screen (AID 1224836); settings: HepG2-CYP2B6-hCAR viability, CellTiter-Fluor, 23 h, PK11195 added to every well; at 92.4 µM (top of the series); also: % is scaled to controls: 0 for no effect and ±100 for the full control effect; nearly all actives have a fitted effect of over 45% in size
Summary of the method: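 Fluorescence from CellTiter-Fluor indicates live cells after 23 h exposure. The human hepatoma line expresses hCAR and a CYP2B6-2.2kb reporter. Incubation medium contains 0.75 uM PK11195 (final).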

[13] = qHTS assay to identify small molecule antagonists of the constitutive androstane receptor (CAR) signaling pathway - cell viability counter screen (AID 1224837); settings: HepG2-CYP2B6-hCAR viability, CellTiter-Fluor, 23 h, co-treated with 50 nM CITCO; at 92.4 µM (top of the series); also: % is scaled to controls: 0 for no effect and ±100 for the full control effect; nearly all actives have a fitted effect of over 45% in size
Summary of the method: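 CITCO at 50 nM final was added alongside compounds (15 concentrations) to double-stable hCAR/CYP2B6-2.2kb HepG2 cells. Following 23 hr at 37 C, cell viability was quantified by CellTiter-Fluor fluorescence intensity.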

[14] = qHTS assay to identify small molecule antagonists of the retinoic acid receptor (RAR) signaling pathway (AID 1159552); settings: C3RL4 RARE luciferase reporter, retinol-stimulated, 6 h; series mostly up to 92.4 µM
Summary of the method: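 Overnight-plated C3RL4 reporter cells get compound, then retinol to 1 uM final; plates sit 6 hr at 37 C, 5% CO2. A luciferase reagent is added and light output recorded after 30 min at room temperature.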

[15] = qHTS assay to identify small molecule agonists of the retinoic acid receptor (RAR) signaling pathway (AID 1159553); settings: C3RL4 RARE luciferase reporter, agonist, 6 h; also: % is scaled to controls: 0 for no effect and ±100 for the full control effect
Summary of the method: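 In this cell-based screen, 1,000 C3RL4 cells per well were cultured overnight, dosed with test chemicals in DMSO for 6 hr, and assessed for RARE luciferase luminescence.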

[16] = target: Nuclear receptor subfamily 1 group I member 3 (Homo sapiens) (UniProt Q14994); test: qHTS assay to identify small molecule antagonists of the constitutive androstane receptor (CAR) signaling pathway (AID 1224838); settings: HepG2-CYP2B6-hCAR luciferase, CITCO-stimulated, 24 h; at 92.4 µM (top of the series); also: % is scaled to controls: 0 for no effect and ±100 for the full control effect; nearly all actives have a fitted effect of over 40% in size
Summary of the method: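 Inhibition of CITCO-driven (50 nM final) CYP2B6 reporter expression is measured in HepG2 cells stably carrying hCAR. Fifteen compound concentrations are applied for 24 h at 37 C, followed by luciferase luminescence.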

[17] = target: Nuclear receptor subfamily 1 group I member 3 (Homo sapiens) (UniProt Q14994); test: qHTS assay to identify small molecule agonists of the constitutive androstane receptor (CAR) signaling pathway (AID 1224839); settings: HepG2 hCAR CYP2B6-luciferase, agonist mode, 24 h; series mostly up to 92.4 µM; also: % is scaled to controls: 0 for no effect and ±100 for the full control effect; nearly all actives have a fitted effect of over 15% in size
Summary of the method: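 Stable hCAR/CYP2B6-2.2kb HepG2 line in DMEM with 10% FBS; compounds (15 concentrations) and 0.75 uM PK11195 final, 24 h at 37 C/5% CO2, then ONE-Glo luminescence after 30 min.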

[18] = qHTS assay to identify small molecule antagonists of the estrogen related receptor signaling pathway with the pleiotropic PPARgamma coactivator (PGC) from Tox21 10K library (AID 1224841; call rule not given here); settings: PGC/ERR reporter cell line, ONE-Glo luciferase, 18 h; series mostly up to 92.4 µM
Summary of the method: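 One-Glo luminescence, measured after half an hour at room temperature, quantified reporter output of PGC/ERR cells. These had been plated at 2,000 per well, incubated 6 h, dosed with compounds in DMSO, then kept 18 h at 37 C.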

COc1ccc2ccccc2c1
inactive: activity change, negative = cytotoxicity ([1]; at 62.6 µM (top of the series)) 2.15% | activity change, negative = cytotoxicity ([2]; at 62.6 µM (top of the series)) -1.53% | viability change, negative = cytotoxic ([3]; at 62 µM (top of the series)) 14.2% | viability change, negative = cytotoxic ([4]; at 62.6 µM (top of the series)) 0.683% | activity change, negative = cytotoxicity [5] 7.64% | activity change, negative = cytotoxicity ([6]; at 61 µM (top of the series)) 1.66% | activity, negative = cytotoxicity [7] -3.75% | activity change, negative = inhibition [8] 0.704% | viability change, negative = cytotoxic [9] 0.863% | activity change, negative = cytotoxicity [10] 1.03% | activity change, negative = cytotoxicity [11] -2.28% | viability change, negative = cytotoxic [12] -3.63% | activity change, negative = cytotoxicity [13] -5.35%

CCCCCCCC1CCC(=O)O1 (stereo unspecified)
inactive: activity change, negative = cytotoxicity ([1]; at 62.6 µM (top of the series)) 2.18% | activity change, negative = cytotoxicity ([2]; at 62.6 µM (top of the series)) 2.58% | viability change, negative = cytotoxic ([3]; at 62 µM (top of the series)) 7.95% | viability change, negative = cytotoxic ([4]; at 62.6 µM (top of the series)) 21.5% | activity change, negative = cytotoxicity [5] -0.678% | activity change, negative = cytotoxicity ([6]; at 61 µM (top of the series)) -6.71% | activity, negative = cytotoxicity [7] -5.48% | activity change, negative = inhibition [8] 84.3% | viability change, negative = cytotoxic [9] 1.62% | activity change, negative = cytotoxicity [10] -14.1% | activity change, negative = cytotoxicity [11] -0.563% | Potency [14] | activation ([15]; at 73.3 µM (top of the series)) 13.4% | viability change, negative = cytotoxic [12] -8.12% | activity change, negative = cytotoxicity [13] -2.32% | activity, negative = inhibition [16] 36.5% | Potency [17]

CC(=O)N(C)C
inactive: activity change, negative = cytotoxicity ([1]; at 62.6 µM (top of the series)) -2.03% | activity change, negative = cytotoxicity ([1]; at 81.1 µM (top of the series)) -0.143% | activity change, negative = cytotoxicity ([2]; at 62.6 µM (top of the series)) 12.2% | activity change, negative = cytotoxicity ([2]; at 81.1 µM (top of the series)) 20.4% | viability change, negative = cytotoxic ([3]; at 62 µM (top of the series)) -5.24% | viability change, negative = cytotoxic ([3]; at 80.4 µM (top of the series)) -18% | viability change, negative = cytotoxic ([4]; at 62.6 µM (top of the series)) -12.8% | viability change, negative = cytotoxic ([4]; at 81.1 µM (top of the series)) 0% | activity change, negative = cytotoxicity ([6]; at 61 µM (top of the series)) 22.7% | activity change, negative = cytotoxicity ([6]; at 78.8 µM (top of the series)) -4.82% | activity, negative = cytotoxicity [7] 5.22% and -3.75% | viability change, negative = cytotoxic [9] 1.46% and 0.0921% | activity change, negative = cytotoxicity [10] -19% and -8.01% | activity change, negative = cytotoxicity [11] -1.1% and 2.94% | Potency [14] | activation ([15]; at 73.3 µM (top of the series)) -2.46% | activation ([15]; at 94.8 µM (top of the series)) -3.89% | viability change, negative = cytotoxic [12] -1.66% and -0.384% | activity change, negative = cytotoxicity [13] 2.11% and 3.19% | activity, negative = inhibition [16] 6.9% and -21.1% | Potency [18]
